Measured values published in PubChem BioAssay AID202 (DTP/NCI, 2004).
The list does not hold the whole screen: it gathers tests that were run many times, whatever their T/C, doses with no T/C, and many T/C values between a quarter and a half above the control. Further doses and runs are listed elsewhere. T/C: endpoint of the treated group in % of that of the vehicle group. Schedule codes are those of the source, taken here to give the interval after Q, in days (D) or hours (H), and the number of doses after X. Some doses were run more than once; the values are given in rising order. Some T/C values are followed by the survivors on the day toxicity was checked, most often the fifth; where none is given, no animal had died by that day. Some entries give survivors of the animals treated and no T/C: the source files T/C as zero there, which appears to mark a toxic dose or a test without result, not a measured value. Survivors were counted at the toxicity check, usually on the fifth day, unless a day is given; later deaths do not show.

System: HT29 xenograft, nude mice, s.c., tumor weight T/C%
Assay: NCI In Vivo Anticancer Drug Screen. Data for tumor model HT29;CX-1 Human Adenocarcinoma (MER+) (subcutaneous) in NU/NU Swiss (nude) mice
Details: T/C endpoint: optimum tumor weight change, higher T/C = larger tumour
Procedure: The antitumor activity of compounds was measured in mice bearing transplantable tumors. Survival or tumor size were measured and the results are expressed as the measurement made in the treated group (T) divided by the measurement made in the vehicle treated control group (C). The tumor model used in this assay is HT29;CX-1 Human Adenocarcinoma (MER+) (subcutaneous) in NU/NU Swiss (nude) mice

[1] = dose: 400.0 mg/kg/injection, schedule: Q04DX003 (ip), vehicle: saline with Tween-80
[2] = dose: 200.0 mg/kg/injection, schedule: Q04DX003 (ip), vehicle: Klucel (hydroxypropylcellulose) (HPC)
[3] = dose: 100.0 mg/kg/injection, schedule: Q04DX003 (ip), vehicle: suspension in saline
[4] = dose: 200.0 mg/kg/injection, schedule: Q04DX003 (ip), vehicle: saline
[5] = dose: 400.0 mg/kg/injection, schedule: Q04DX003 (ip), vehicle: saline
[6] = dose: 800.0 mg/kg/injection, schedule: Q04DX003 (ip), vehicle: saline
[7] = dose: 200.0 mg/kg/injection, schedule: Q04DX003 (ip), vehicle: suspension in saline
[8] = dose: 400.0 mg/kg/injection, schedule: Q04DX003 (ip), vehicle: suspension in saline

NC(Cc1ccc(N(CCCl)CCCl)cc1)C(=O)O (stereo unspecified) was tested, and the survivor count (dose: 10.0 mg/kg/injection, schedule: Q04DX003 (ip), vehicle: Klucel (hydroxypropylcellulose) (HPC)) was 3 of 5 on day 40 and the survivor count (dose: 20.0 mg/kg/injection, schedule: Q04DX003 (ip), vehicle: Klucel (hydroxypropylcellulose) (HPC)) was 0 of 5 on day 40.

O=Cc1ccc(O)c(O)c1 was tested, and the survivor count (dose: 200.0 mg/kg/injection, schedule: Q04DX003 (ip), vehicle: saline with Tween-80) was 3 of 5 on day 35 and the survivor count [1] was 2 of 5 on day 35.

For COc1cc([C@@H]2c3cc4c(c(O)c3C[C@H]3COC(=O)[C@@H]32)OCO4)cc(OC)c1OC, the survivor count (dose: 20.0 mg/kg/injection, schedule: Q04DX003 (ip), vehicle: saline) was 2 of 5 on day 37.

With COC(OC(CO)C(O)S(=O)(=O)O)C(O)S(=O)(=O)O (stereo unspecified) the survivor count (dose: 800.0 mg/kg/injection, schedule: Q04DX003 (ip), vehicle: suspension in saline) was 3 of 5 on day 36 and the survivor count (dose: 1600.0 mg/kg/injection, schedule: Q04DX003 (ip), vehicle: suspension in saline) was 0 of 5 on day 36.

For Nc1nc(N)c2cc(CNc3ccc(C(=O)NC(CC(=O)O)CC(=O)O)cc3)ccc2n1, the survivor count (dose: 100.0 mg/kg/injection, schedule: Q04DX003 (ip), vehicle: Klucel (hydroxypropylcellulose) (HPC)) was 3 of 5 on day 40 and the survivor count [2] was 0 of 5 on day 40.

O=P1(NCCCl)OCCCN1CCCl (stereo unspecified) was tested, and the survivor count [3] was 3 of 5 on day 41, the survivor count [4] was 0 of 5 on day 39 and the survivor count [5] was 0 of 5 on day 39. For the same compound, the survivor count [6] was 0 of 5 on day 39.

CCOC(=O)C1C2OC(=O)C(C(=O)C2CN(CCCl)CCCl)C1C1CC=C(CC2=CCC(C3C4C(=O)OC(C(CN(CCCl)CCCl)C4=O)C3C(=O)OCC)CC2)CC1 (stereo unspecified) was tested, and the survivor count [2] was 0 of 5 on day 36.

With CCCCNCCCNCCCNC(=O)c1csc(-c2csc(CCNC(=O)C(NC(=O)C(C)C(O)C(C)NC(=O)C(NC(=O)c3nc(C(CC(N)=O)NCC(N)C(N)=O)nc(N)c3C)C(OC3OC(CO)C(O)C(O)C3OC3OC(CO)C(O)C(OC(N)=O)C3O)c3cnc[nH]3)C(C)O)n2)n1 (stereo unspecified) the survivor count (dose: 120.0 mg/kg/injection, schedule: Q04DX003 (ip), vehicle: saline) was 1 of 5 on day 36 and the survivor count (dose: 120.0 mg/kg/injection, schedule: Q04DX004 (ip), vehicle: saline) was 0 of 5 on day 35.

O=C[C@@H](CO)O[C@H](C=O)n1cnc2c(=O)[nH]cnc21 was tested, and the survivor count [6] was 0 of 5 on day 42.

In the case of CC(=O)OCC1OC(n2ccc(N)nc2=O)C(OC(C)=O)C1OC(C)=O (stereo unspecified), the survivor count [7] is reported as 3 of 5 on day 39.

In the case of C=CC(=O)NCNC(=O)C=C, the survivor count [5] is reported as 1 of 5 on day 35.

N/C(=N\O)c1cn(C2OC(CO)C(O)C2O)c2ncnc(N)c12 (stereo unspecified) was tested, and the survivor count (dose: 40.0 mg/kg/injection, schedule: Q04DX003 (ip), vehicle: Klucel (hydroxypropylcellulose) (HPC)) was 0 of 5 on day 35.

For Nc1cc2[nH]cnc2c(=O)[nH]1, the survivor count [5] was 3 of 5 on day 35.

O=C(O)CP(=O)(O)O was tested, and the survivor count (dose: 3200.0 mg/kg/injection, schedule: Q04DX003 (ip), vehicle: saline) was 0 of 5 on day 40.

In the case of CNC(=O)ON(C(C)=O)C(=O)NC, the survivor count [4] is reported as 0 of 5 on day 39.

CC1OC(OC2CC(O)(C(=O)CO)Cc3c(O)c4c(c(O)c32)C(=O)c2ccccc2C4=O)CC(N)C1O (stereo unspecified) was tested, and the survivor count (dose: 0.5 mg/kg/injection, schedule: Q04DX003 (ip), vehicle: water) was 2 of 5 on day 38, the survivor count (dose: 1.0 mg/kg/injection, schedule: Q04DX003 (ip), vehicle: water) was 0 of 5 on day 38 and the survivor count (dose: 2.0 mg/kg/injection, schedule: Q04DX003 (ip), vehicle: water) was 0 of 5 on day 38.

With O=C1N(Cl)C(=O)C(c2ccc(Cl)cc2)(c2ccc(Cl)cc2)N1Cl the survivor count [1] was 3 of 5 on day 35 and the survivor count (dose: 800.0 mg/kg/injection, schedule: Q04DX003 (ip), vehicle: saline with Tween-80) was 0 of 5 on day 35.

With N=C(N)SCc1c2ccccc2c(CSC(=N)N)c2ccccc12 the survivor count [3] was 0 of 5 on day 40, the survivor count [7] was 0 of 5 on day 40 and the survivor count [8] was 0 of 5 on day 40.

With CC(CN1CC(=O)NC(=O)C1)N1CC(=O)NC(=O)C1 (stereo unspecified) the survivor count [8] was 2 of 5 on day 36.

For C=C(C)[C@H]1Cc2c(ccc3c2O[C@@H]2COc4cc(OC)c(OC)cc4[C@@H]2C3=O)O1, the survivor count (dose: 6.25 mg/kg/injection, schedule: Q04DX003 (ip), vehicle: saline) was 3 of 5 on day 37.

With CC[C@](O)(C(=O)O)c1cc2n(c(=O)c1CO)Cc1cc3ccccc3nc1-2 the survivor count (dose: 18.0 mg/kg/injection, schedule: Q04DX003 (ip), vehicle: saline) was 3 of 5 on day 40, the survivor count (dose: 36.0 mg/kg/injection, schedule: Q04DX003 (ip), vehicle: saline) was 3 of 5 on day 40 and the survivor count (dose: 72.0 mg/kg/injection, schedule: Q04DX003 (ip), vehicle: saline) was 1 of 5 on day 40.

For Cc1c(CNc2ccc(C(=O)NC(CC(=O)O)C(=O)O)cc2)ccc2nc(N)nc(N)c12 (stereo unspecified), the survivor count (dose: 24.0 mg/kg/injection, schedule: Q04DX003 (ip), vehicle: saline with Tween-80) was 3 of 5 on day 35.

For N=C(N)Sc1ccccn1, the survivor count [5] was 2 of 5 on day 35.

For Oc1ccc(O)cc1, the T/C (dose: 100.0 mg/kg/injection, schedule: Q04DX003 (ip), vehicle: saline, evaluated on day 35) was 148 % of control and the survivor count [4] was 0 of 5 on day 37.

CN1CCN(CCCN2c3ccccc3Sc3ccc(C(F)(F)F)cc32)CC1 was tested, and the survivor count (dose: 100.0 mg/kg/injection, schedule: Q04DX003 (ip), vehicle: saline) was 0 of 5 on day 35, the survivor count [4] was 0 of 5 on day 35 and the survivor count [5] was 0 of 5 on day 35.

With NC(=S)N/N=C/c1ccc(O)cn1 the survivor count (dose: 1200.0 mg/kg/injection, schedule: Q04DX003 (ip), vehicle: saline with Tween-80) was 3 of 5 on day 42.

Cc1c(N)nc([C@H](CC(N)=O)NC[C@H](N)C(N)=O)nc1C(=O)N[C@H](C(=O)N[C@H](C)[C@@H](O)[C@H](C)C(=O)N[C@H](C(=O)NCCc1nc(-c2nc(C(=O)NCCC[S+](C)C)cs2)cs1)[C@@H](C)O)C(OC1OC(CO)C(O)C(O)C1OC1OC(CO)C(O)C(OC(N)=O)C1O)c1cnc[nH]1 (stereo partly specified) was tested, and the survivor count (dose: 7.5 mg/kg/injection, schedule: Q04DX003 (ip), vehicle: saline) was 2 of 5 on day 36, the T/C (dose: 15.0 mg/kg/injection, schedule: Q04DX003 (ip), vehicle: saline, evaluated on day 33) was 30 % of control and the T/C (dose: 15.0 mg/kg/injection, schedule: Q04DX003 (ip), vehicle: saline, evaluated on day 34) was 52 % of control. For the same compound, the T/C (dose: 15.0 mg/kg/injection, schedule: Q04DX003 (ip), vehicle: saline, evaluated on day 36) was 49 % of control, the T/C (dose: 15.0 mg/kg/injection, schedule: Q04DX003 (ip), vehicle: saline, evaluated on day 40) was 37 % of control and the survivor count (dose: 15.0 mg/kg/injection, schedule: Q04DX003 (ip), vehicle: saline) was 3 of 5 on day 36. For the same compound, the T/C (dose: 30.0 mg/kg/injection, schedule: Q04DX003 (ip), vehicle: saline, evaluated on day 33) was 22 % of control, the T/C (dose: 30.0 mg/kg/injection, schedule: Q04DX003 (ip), vehicle: saline, evaluated on day 34) was 28 and 35 % of control and the T/C (dose: 30.0 mg/kg/injection, schedule: Q04DX003 (ip), vehicle: saline, evaluated on day 36) was 48 % of control. For the same compound, the survivor count (dose: 30.0 mg/kg/injection, schedule: Q04DX003 (ip), vehicle: saline) was 2 of 5 on day 42, the survivor count (dose: 30.0 mg/kg/injection, schedule: Q04DX004 (ip), vehicle: saline) was 0 of 5 on day 35 and the survivor count (dose: 32.0 mg/kg/injection, schedule: Q04DX003 (ip), vehicle: saline) was 3 of 5 on day 36. For the same compound, the T/C (dose: 60.0 mg/kg/injection, schedule: Q04DX003 (ip), vehicle: saline, evaluated on day 34) was 3 [4 of 5 alive on day 36] and 48 % of control, the T/C (dose: 60.0 mg/kg/injection, schedule: Q04DX003 (ip), vehicle: saline, evaluated on day 36) was 13 % of control and the survivor count (dose: 60.0 mg/kg/injection, schedule: Q04DX003 (ip), vehicle: saline) was 2 of 5 on day 42 and 3 of 5 on day 35. The survivor count (dose: 60.0 mg/kg/injection, schedule: Q04DX004 (ip), vehicle: saline) was 0 of 5 on day 35 and the survivor count (dose: 64.0 mg/kg/injection, schedule: Q04DX003 (ip), vehicle: saline) was 2 of 5 on day 36.
